Experimental data from publication PMC3539393.
Results are given in words; binding and its absence hold for the method and conditions named. Binding seen in cells or lysates may run through a third protein. Tags and fused reporters may be left off the sequences shown.

Amino acid sequences for entries named in this document (tags omitted).
UniProt P37238: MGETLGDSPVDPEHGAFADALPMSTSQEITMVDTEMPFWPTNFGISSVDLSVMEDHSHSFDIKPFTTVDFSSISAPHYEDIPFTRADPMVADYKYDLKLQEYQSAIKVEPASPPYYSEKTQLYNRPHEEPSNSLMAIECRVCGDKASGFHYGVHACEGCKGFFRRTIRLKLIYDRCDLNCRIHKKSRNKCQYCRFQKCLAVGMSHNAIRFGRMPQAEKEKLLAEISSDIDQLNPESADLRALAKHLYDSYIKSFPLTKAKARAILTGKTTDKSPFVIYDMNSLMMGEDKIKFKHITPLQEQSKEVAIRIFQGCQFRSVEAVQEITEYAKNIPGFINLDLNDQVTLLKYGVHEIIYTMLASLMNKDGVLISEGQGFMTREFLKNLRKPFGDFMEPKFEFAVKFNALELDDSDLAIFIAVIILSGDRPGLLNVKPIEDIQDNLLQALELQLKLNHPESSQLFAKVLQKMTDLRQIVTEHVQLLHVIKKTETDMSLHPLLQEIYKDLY

Biological target: FLAG tagged PPARγ (UniProt P37238)
Experiment: co-IP; 500 μg whole-cell extracts of 293T cells co-transfected in pairs; IP with FLAG or HA antibodies at 4°C overnight, 0.3 M NaCl and 0.2% NP-40, protein A/G beads; washes 0.15 M NaCl and 0.1% NP-40; Western blot with FLAG and HA antibodies; without rosiglitazone

binding: no binding
B1: HA tagged TBP (protein, UniProt P29037 1-316)
chain: MDQNNSLPPYAQGLASPQGAMTPGIPIFSPMMPYGTGLTPQPIQNTNSLSILEEQQRQQQQQQQQQQQQQAVATAAASVQQSTSQQPTQGASGQTPQLFHSQTLTTAPLPGTTPLYPSPMTPMTPITPATPASESSGIVPQLQNIVSTVNLGCKLDLKTIALRARNAEYNPKRFAAVIMRIREPRTTALIFSSGKMVCTGAKSEEQSRLAARKYARVVQKLGFPAKFLDFKIQNMVGSCDVKFPIRLEGLVLTHQQFSSYEPELFPGLIYRMIKPRIVLLIFVSGKVVLTGAKVRAEIYEAFENIYPILKGFRKTT
